Values from PubChem BioAssay AID1224830 (NIAID, 2016)
The whole screen tested about 18,000 reagents; this is an unselected part. Over the whole deposit, about 2,900 (16%) got an active call. 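Calls are made per well; low scores hint the gene aids the LPS response, high scores that it dampens it.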 Repeated entries: four replicate wells of each siRNA pool.

- Screen: 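Host factors that control LPS-induced TNF expression in human macrophages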 (primary screen)
- Cells: human THP-1 monocytic leukaemia cells, TNF dual-luciferase reporter clone, PMA-differentiated to macrophage-like cells
- Reagents: siRNA pool against human genes, 50 nM
- Duration: LPS for 4 h, given about 3 days after siRNA transfection
- Treatment: bacterial LPS (TLR4 ligand), 10 ng/ml
- Read-out: 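Ratio of firefly to renilla light, scaled to the plate median and expressed as a robust z-score per replicate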
- Direction: TNF reporter robust z-score: higher = stronger TNF reporter response to LPS
- Active means: 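Each well counts as active if its z-score is over 2.8 or under -1.5; controls are left without a call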

gene symbol | TNF reporter robust z-score | activity call
DHFR2 (dihydrofolate reductase 2) | 1.26 | inactive
DHFR2 (dihydrofolate reductase 2) | 1.61 | inactive
DHFR2 (dihydrofolate reductase 2) | 0.49 | inactive
DHFR2 (dihydrofolate reductase 2) | 0.89 | inactive
WDR26 (WD repeat domain 26) | 0.47 | inactive
WDR26 (WD repeat domain 26) | 0.84 | inactive
WDR26 (WD repeat domain 26) | -0.26 | inactive
WDR26 (WD repeat domain 26) | 0.03 | inactive
GMEB2 (glucocorticoid modulatory element binding protein 2) | -0.14 | inactive
GMEB2 (glucocorticoid modulatory element binding protein 2) | 0.22 | inactive
GMEB2 (glucocorticoid modulatory element binding protein 2) | 0.74 | inactive
GMEB2 (glucocorticoid modulatory element binding protein 2) | 1.36 | inactive
PPARD (peroxisome proliferator activated receptor delta) | 0.65 | inactive
PPARD (peroxisome proliferator activated receptor delta) | -0.58 | inactive
PPARD (peroxisome proliferator activated receptor delta) | -0.54 | inactive
PPARD (peroxisome proliferator activated receptor delta) | 0.53 | inactive
OR11A1 (olfactory receptor family 11 subfamily A member 1) | -0.69 | inactive
OR11A1 (olfactory receptor family 11 subfamily A member 1) | -0.4 | inactive
OR11A1 (olfactory receptor family 11 subfamily A member 1) | 0.52 | inactive
OR11A1 (olfactory receptor family 11 subfamily A member 1) | 0.74 | inactive
FBL (fibrillarin rRNA 2'-O-methyltransferase) | -0.23 | inactive
FBL (fibrillarin rRNA 2'-O-methyltransferase) | 1.03 | inactive
FBL (fibrillarin rRNA 2'-O-methyltransferase) | 0.1 | inactive
FBL (fibrillarin rRNA 2'-O-methyltransferase) | 0.88 | inactive
ARL6IP1 (ARL6 interacting reticulophagy regulator 1) | 1.28 | inactive
ARL6IP1 (ARL6 interacting reticulophagy regulator 1) | 1.05 | inactive
ARL6IP1 (ARL6 interacting reticulophagy regulator 1) | 0.9 | inactive
ARL6IP1 (ARL6 interacting reticulophagy regulator 1) | 1.53 | inactive
CHORDC1 (cysteine and histidine rich domain containing 1) | 0.51 | inactive
CHORDC1 (cysteine and histidine rich domain containing 1) | 0.77 | inactive
CHORDC1 (cysteine and histidine rich domain containing 1) | -0.68 | inactive
CHORDC1 (cysteine and histidine rich domain containing 1) | -1.05 | inactive
KRT28 (keratin 28) | 0.64 | inactive
KRT28 (keratin 28) | 0.06 | inactive
KRT28 (keratin 28) | -0.2 | inactive
KRT28 (keratin 28) | -0.59 | inactive
SNRPB2 (small nuclear ribonucleoprotein polypeptide B2) | 0.73 | inactive
SNRPB2 (small nuclear ribonucleoprotein polypeptide B2) | 0.11 | inactive
SNRPB2 (small nuclear ribonucleoprotein polypeptide B2) | 0.47 | inactive
SNRPB2 (small nuclear ribonucleoprotein polypeptide B2) | 0.98 | inactive
SLC7A11 | -0.4 | inactive
SLC7A11 | 0.7 | inactive
SLC7A11 | -0.61 | inactive
SLC7A11 | 0.42 | inactive
ISOC2 (isochorismatase domain containing 2) | 1.72 | inactive
ISOC2 (isochorismatase domain containing 2) | 3.44 | active
ISOC2 (isochorismatase domain containing 2) | 3.09 | active
ISOC2 (isochorismatase domain containing 2) | 2.86 | active
ILKAP (ILK associated serine/threonine phosphatase) | -0.24 | inactive
ILKAP (ILK associated serine/threonine phosphatase) | 1.01 | inactive
ILKAP (ILK associated serine/threonine phosphatase) | 2.04 | inactive
ILKAP (ILK associated serine/threonine phosphatase) | 2.82 | active
MRO (maestro) | 0.44 | inactive
MRO (maestro) | 0.35 | inactive
MRO (maestro) | 0.06 | inactive
MRO (maestro) | 0.71 | inactive
DIPK2A (divergent protein kinase domain 2A) | -0.38 | inactive
DIPK2A (divergent protein kinase domain 2A) | -0.59 | inactive
DIPK2A (divergent protein kinase domain 2A) | -0.65 | inactive
DIPK2A (divergent protein kinase domain 2A) | 0.91 | inactive
ST6GALNAC2 (ST6 N-acetylgalactosaminide alpha-2,6-sialyltransferase 2) | -0.77 | inactive
ST6GALNAC2 (ST6 N-acetylgalactosaminide alpha-2,6-sialyltransferase 2) | -0.85 | inactive
ST6GALNAC2 (ST6 N-acetylgalactosaminide alpha-2,6-sialyltransferase 2) | -0.43 | inactive
ST6GALNAC2 (ST6 N-acetylgalactosaminide alpha-2,6-sialyltransferase 2) | -0.25 | inactive
MIS18BP1 (MIS18 binding protein 1) | 1.23 | inactive
MIS18BP1 (MIS18 binding protein 1) | 0.71 | inactive
MIS18BP1 (MIS18 binding protein 1) | 0.45 | inactive
MIS18BP1 (MIS18 binding protein 1) | 0.89 | inactive
ZNF343 (zinc finger protein 343) | -1.99 | active
ZNF343 (zinc finger protein 343) | -1.75 | active
ZNF343 (zinc finger protein 343) | -1.79 | active
ZNF343 (zinc finger protein 343) | -1.78 | active
ATF2 (activating transcription factor 2) | -0.63 | inactive
ATF2 (activating transcription factor 2) | -0.6 | inactive
ATF2 (activating transcription factor 2) | -0.48 | inactive
ATF2 (activating transcription factor 2) | -0.57 | inactive
ANGPT1 (angiopoietin 1) | 0.09 | inactive
ANGPT1 (angiopoietin 1) | 1.04 | inactive
ANGPT1 (angiopoietin 1) | 0.45 | inactive
ANGPT1 (angiopoietin 1) | 1.03 | inactive
TRMT61B (tRNA methyltransferase 61B) | 1.51 | inactive
TRMT61B (tRNA methyltransferase 61B) | 0.18 | inactive
TRMT61B (tRNA methyltransferase 61B) | 1.41 | inactive
TRMT61B (tRNA methyltransferase 61B) | 0.6 | inactive
CH25H (cholesterol 25-hydroxylase) | 0.35 | inactive
CH25H (cholesterol 25-hydroxylase) | 1.06 | inactive
CH25H (cholesterol 25-hydroxylase) | 0.13 | inactive
CH25H (cholesterol 25-hydroxylase) | 0.34 | inactive
ZNF584 (zinc finger protein 584) | -0.09 | inactive
ZNF584 (zinc finger protein 584) | 1.57 | inactive
ZNF584 (zinc finger protein 584) | 0.57 | inactive
ZNF584 (zinc finger protein 584) | -0.13 | inactive
EGF (epidermal growth factor) | 0.21 | inactive
EGF (epidermal growth factor) | -0.5 | inactive
EGF (epidermal growth factor) | 0.53 | inactive
EGF (epidermal growth factor) | -0.02 | inactive
ZNF826P (zinc finger protein 826, pseudogene) | 0.66 | inactive
ZNF826P (zinc finger protein 826, pseudogene) | -0.41 | inactive
ZNF826P (zinc finger protein 826, pseudogene) | -0.34 | inactive
ZNF826P (zinc finger protein 826, pseudogene) | 1.05 | inactive
ZNF385D (zinc finger protein 385D) | – | inactive
DNAJC2 (DnaJ heat shock protein family (Hsp40) member C2) | -0.55 | inactive
DNAJC2 (DnaJ heat shock protein family (Hsp40) member C2) | -0.27 | inactive
DNAJC2 (DnaJ heat shock protein family (Hsp40) member C2) | -0.54 | inactive
DNAJC2 (DnaJ heat shock protein family (Hsp40) member C2) | 0.92 | inactive
PGBD5 (piggyBac transposable element derived 5) | 2.07 | inactive
PGBD5 (piggyBac transposable element derived 5) | -0.06 | inactive
PGBD5 (piggyBac transposable element derived 5) | -0.09 | inactive
PGBD5 (piggyBac transposable element derived 5) | -0.02 | inactive
SH3D19 (SH3 domain containing 19) | -1.46 | inactive
SH3D19 (SH3 domain containing 19) | -1.25 | inactive
SH3D19 (SH3 domain containing 19) | -1.45 | inactive
SH3D19 (SH3 domain containing 19) | -1.31 | inactive

Records listed so far marked active (8):
gene symbol | TNF reporter robust z-score | activity call
ISOC2 (isochorismatase domain containing 2) | 3.44 | active
ISOC2 (isochorismatase domain containing 2) | 3.09 | active
ISOC2 (isochorismatase domain containing 2) | 2.86 | active
ILKAP (ILK associated serine/threonine phosphatase) | 2.82 | active
ZNF343 (zinc finger protein 343) | -1.99 | active
ZNF343 (zinc finger protein 343) | -1.75 | active
ZNF343 (zinc finger protein 343) | -1.79 | active
ZNF343 (zinc finger protein 343) | -1.78 | active
